The list shows a part of the results.
Assays:
Assay in all cases: log2 fold change, soluble protein after heating vs DMSO (PISA); higher = thermal stabilisation; K562 cells, 10 uM, 30 min; active = over 0.2 and 3.5 SD of the protein, either way, in both replicates (recomputed)
saracatinib = compound: CN1CCN(CCOc2cc(OC3CCOCC3)c3c(Nc4c(Cl)ccc5c4OCO5)ncnc3c2)CC1 [saracatinib]
Outline: (§1)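 Soluble protein was quantified by TMTpro 16plex LC-MS/MS after channel sums were equalised. It was obtained as the supernatant after 21,000xg for 90 min from pooled aliquots of K562 cells (2×10^6 cells/mL, 10 μM compound, 30 min) heated for 3 min across 48°C-58°C and extracted in PBS with 0.5% NP-40 at 4°C. Thermal stability values are relative to control samples and come from duplicates. They are given as log2 fold changes.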

By UniProt entry, the sequences of proteins in these tests, tags left out. Where a name states a change or a piece, a line headed by the entry shows the natural chain unless it says otherwise.
UniProt Q9BSE4: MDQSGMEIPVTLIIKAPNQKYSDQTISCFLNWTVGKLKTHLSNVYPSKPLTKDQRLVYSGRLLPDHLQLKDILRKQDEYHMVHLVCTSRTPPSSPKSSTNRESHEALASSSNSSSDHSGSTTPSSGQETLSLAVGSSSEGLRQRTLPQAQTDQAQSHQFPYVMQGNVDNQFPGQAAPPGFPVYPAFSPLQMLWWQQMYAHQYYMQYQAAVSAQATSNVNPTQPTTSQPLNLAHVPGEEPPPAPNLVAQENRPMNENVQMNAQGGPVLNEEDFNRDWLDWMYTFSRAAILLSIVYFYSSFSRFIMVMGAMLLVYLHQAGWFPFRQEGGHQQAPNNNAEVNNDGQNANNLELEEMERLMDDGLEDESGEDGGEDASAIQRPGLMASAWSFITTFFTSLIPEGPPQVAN
UniProt P08263: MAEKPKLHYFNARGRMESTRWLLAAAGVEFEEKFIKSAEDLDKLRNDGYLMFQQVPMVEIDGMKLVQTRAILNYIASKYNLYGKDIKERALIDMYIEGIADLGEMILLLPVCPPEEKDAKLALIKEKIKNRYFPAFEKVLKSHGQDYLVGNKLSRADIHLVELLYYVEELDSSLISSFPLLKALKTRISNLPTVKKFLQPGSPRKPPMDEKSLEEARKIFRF
UniProt Q4G148: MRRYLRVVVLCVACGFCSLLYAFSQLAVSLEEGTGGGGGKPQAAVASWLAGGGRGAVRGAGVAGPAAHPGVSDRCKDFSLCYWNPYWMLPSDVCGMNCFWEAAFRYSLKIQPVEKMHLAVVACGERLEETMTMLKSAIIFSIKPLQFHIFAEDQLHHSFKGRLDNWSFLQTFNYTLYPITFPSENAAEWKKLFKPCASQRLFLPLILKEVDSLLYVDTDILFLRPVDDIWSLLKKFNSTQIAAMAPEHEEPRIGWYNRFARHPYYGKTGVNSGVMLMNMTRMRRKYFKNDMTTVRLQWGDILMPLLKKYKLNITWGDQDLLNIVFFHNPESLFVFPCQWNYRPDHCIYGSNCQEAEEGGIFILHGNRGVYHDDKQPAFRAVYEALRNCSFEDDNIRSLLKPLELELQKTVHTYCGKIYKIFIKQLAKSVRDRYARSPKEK
UniProt P28161: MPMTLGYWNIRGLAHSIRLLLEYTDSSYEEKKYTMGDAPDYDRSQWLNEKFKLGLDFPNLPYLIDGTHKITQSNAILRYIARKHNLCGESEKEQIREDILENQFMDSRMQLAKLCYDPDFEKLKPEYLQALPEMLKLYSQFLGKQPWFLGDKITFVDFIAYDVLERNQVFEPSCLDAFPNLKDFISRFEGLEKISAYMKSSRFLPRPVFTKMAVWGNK
UniProt Q14469: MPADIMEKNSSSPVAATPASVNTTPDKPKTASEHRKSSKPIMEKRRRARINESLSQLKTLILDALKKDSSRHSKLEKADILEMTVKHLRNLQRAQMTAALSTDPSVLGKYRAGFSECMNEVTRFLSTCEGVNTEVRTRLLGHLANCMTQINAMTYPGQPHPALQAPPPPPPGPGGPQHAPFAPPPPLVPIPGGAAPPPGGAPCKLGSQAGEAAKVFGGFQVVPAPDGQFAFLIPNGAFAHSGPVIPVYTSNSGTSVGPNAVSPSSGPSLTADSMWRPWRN
UniProt Q8WVB3: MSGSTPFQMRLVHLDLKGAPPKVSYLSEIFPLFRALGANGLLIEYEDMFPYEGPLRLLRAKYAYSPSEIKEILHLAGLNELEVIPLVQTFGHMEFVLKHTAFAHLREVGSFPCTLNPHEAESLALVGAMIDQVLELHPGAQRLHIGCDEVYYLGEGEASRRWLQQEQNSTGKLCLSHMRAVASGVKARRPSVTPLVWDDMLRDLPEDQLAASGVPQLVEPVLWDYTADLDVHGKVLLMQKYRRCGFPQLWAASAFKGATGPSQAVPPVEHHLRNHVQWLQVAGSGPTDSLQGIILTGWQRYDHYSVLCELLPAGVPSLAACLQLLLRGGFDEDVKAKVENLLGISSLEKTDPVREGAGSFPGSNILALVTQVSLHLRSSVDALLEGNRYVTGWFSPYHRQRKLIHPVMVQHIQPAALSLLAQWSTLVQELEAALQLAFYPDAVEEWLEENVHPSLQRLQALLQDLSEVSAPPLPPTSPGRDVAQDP
UniProt A2PYH4: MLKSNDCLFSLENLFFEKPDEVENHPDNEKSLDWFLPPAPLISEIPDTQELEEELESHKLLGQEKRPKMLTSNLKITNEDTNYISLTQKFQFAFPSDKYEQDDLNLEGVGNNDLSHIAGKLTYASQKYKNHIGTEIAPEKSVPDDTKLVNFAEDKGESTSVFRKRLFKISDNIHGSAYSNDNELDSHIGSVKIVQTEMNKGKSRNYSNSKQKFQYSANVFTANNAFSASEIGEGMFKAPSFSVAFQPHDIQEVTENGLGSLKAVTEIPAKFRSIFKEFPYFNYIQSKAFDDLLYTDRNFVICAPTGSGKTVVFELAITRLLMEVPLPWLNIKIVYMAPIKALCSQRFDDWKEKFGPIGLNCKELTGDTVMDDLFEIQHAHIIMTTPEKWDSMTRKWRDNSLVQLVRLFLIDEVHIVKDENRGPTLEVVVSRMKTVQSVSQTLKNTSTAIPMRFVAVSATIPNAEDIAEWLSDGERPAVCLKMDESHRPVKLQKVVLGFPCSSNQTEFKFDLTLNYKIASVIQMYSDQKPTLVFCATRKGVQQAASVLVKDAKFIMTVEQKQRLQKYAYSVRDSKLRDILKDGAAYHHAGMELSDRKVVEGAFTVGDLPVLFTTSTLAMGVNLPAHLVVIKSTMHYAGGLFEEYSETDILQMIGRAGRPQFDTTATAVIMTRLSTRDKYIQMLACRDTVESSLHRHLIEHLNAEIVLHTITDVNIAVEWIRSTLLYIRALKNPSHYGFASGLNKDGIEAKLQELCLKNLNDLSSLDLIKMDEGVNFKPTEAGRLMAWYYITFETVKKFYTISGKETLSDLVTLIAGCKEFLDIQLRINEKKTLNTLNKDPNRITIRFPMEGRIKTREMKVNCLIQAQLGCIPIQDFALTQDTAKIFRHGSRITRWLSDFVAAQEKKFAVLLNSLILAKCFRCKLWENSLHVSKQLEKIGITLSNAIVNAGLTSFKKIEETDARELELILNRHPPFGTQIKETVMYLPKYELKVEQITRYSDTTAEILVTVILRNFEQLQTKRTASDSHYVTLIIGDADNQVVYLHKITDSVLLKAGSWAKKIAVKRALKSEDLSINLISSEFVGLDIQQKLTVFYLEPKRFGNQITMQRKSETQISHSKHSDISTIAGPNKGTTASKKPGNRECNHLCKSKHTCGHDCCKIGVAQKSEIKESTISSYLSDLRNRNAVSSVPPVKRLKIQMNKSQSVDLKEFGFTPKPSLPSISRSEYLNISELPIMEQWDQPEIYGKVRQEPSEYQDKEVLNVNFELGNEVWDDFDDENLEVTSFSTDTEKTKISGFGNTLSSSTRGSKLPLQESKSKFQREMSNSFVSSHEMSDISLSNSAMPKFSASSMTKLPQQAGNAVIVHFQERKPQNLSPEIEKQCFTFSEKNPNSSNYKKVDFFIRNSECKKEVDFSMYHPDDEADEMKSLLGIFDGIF
UniProt Q9BT25: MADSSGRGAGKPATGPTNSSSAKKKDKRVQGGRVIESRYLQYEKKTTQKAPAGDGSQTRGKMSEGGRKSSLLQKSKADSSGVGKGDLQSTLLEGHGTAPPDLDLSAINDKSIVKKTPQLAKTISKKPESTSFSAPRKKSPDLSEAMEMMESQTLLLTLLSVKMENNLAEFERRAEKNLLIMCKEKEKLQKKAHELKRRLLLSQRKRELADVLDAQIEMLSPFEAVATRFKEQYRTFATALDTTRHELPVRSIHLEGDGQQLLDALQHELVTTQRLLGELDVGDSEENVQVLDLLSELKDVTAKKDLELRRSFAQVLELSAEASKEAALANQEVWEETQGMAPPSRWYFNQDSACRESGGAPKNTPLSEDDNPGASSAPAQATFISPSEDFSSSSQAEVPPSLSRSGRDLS
UniProt Q9NVX0: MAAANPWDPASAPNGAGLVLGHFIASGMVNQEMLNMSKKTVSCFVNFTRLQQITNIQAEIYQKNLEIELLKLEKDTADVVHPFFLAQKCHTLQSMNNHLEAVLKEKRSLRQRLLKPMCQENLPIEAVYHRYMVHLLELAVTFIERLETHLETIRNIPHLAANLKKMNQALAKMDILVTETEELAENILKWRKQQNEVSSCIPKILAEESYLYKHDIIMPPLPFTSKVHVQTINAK
UniProt P32780: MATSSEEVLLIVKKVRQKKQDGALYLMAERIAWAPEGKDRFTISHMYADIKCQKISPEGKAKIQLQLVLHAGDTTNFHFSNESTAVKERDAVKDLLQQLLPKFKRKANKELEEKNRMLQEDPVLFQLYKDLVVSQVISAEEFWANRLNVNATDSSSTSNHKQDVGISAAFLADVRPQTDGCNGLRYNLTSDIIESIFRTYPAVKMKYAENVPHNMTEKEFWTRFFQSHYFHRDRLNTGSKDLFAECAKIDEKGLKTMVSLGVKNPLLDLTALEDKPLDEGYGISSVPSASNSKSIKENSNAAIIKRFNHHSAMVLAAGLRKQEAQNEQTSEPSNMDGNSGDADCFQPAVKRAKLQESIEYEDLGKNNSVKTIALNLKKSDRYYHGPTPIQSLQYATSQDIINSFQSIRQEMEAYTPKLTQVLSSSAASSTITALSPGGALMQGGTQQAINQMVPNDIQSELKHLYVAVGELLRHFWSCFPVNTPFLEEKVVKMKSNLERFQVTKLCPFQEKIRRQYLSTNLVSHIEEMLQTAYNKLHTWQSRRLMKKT
UniProt Q969S8: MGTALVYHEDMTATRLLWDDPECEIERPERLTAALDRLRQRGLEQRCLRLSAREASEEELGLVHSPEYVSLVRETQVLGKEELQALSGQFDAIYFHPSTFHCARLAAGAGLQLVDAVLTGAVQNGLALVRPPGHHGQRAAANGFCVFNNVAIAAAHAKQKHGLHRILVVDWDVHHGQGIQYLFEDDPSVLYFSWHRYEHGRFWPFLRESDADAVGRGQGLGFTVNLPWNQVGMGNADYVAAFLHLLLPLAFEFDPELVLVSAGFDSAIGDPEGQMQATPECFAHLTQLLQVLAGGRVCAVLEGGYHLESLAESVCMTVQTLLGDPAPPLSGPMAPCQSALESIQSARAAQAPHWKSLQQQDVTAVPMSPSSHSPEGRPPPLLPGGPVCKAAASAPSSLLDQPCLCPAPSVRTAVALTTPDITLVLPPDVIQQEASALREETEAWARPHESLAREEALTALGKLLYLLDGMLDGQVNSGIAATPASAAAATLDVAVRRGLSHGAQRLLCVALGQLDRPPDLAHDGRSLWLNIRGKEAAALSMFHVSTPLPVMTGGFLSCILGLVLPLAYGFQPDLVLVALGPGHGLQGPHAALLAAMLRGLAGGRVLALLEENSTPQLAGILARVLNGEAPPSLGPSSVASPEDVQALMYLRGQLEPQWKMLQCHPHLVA
UniProt P68871: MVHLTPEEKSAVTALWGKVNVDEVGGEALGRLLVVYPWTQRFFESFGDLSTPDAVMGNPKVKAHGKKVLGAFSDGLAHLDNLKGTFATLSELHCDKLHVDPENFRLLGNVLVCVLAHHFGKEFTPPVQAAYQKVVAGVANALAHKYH
UniProt Q8N3Z3: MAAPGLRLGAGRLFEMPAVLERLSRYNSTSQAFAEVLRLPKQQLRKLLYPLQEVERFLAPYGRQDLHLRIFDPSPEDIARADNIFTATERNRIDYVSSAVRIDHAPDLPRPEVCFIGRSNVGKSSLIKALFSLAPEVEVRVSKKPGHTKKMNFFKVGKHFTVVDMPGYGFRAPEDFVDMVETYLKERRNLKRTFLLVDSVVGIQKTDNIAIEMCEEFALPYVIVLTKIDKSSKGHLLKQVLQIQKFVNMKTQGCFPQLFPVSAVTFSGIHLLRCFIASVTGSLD
UniProt Q8NEC7: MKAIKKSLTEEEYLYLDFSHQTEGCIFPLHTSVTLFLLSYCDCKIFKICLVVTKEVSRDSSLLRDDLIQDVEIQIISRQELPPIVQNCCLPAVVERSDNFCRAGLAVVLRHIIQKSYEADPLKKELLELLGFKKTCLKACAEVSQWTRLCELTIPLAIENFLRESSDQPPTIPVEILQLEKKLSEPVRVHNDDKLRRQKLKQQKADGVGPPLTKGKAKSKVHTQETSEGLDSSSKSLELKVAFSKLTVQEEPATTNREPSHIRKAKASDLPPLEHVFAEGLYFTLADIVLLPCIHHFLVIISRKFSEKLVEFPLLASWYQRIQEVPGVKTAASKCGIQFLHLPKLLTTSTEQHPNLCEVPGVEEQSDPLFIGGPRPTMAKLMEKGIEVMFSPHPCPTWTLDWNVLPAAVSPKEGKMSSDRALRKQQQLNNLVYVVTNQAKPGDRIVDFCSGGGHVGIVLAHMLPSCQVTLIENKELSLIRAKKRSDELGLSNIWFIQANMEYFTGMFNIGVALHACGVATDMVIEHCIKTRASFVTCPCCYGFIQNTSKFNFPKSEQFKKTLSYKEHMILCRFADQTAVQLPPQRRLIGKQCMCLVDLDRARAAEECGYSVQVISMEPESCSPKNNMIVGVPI

alvocidib = compound: CN1CC[C@H](c2c(O)cc(O)c3c(=O)cc(-c4ccccc4Cl)oc23)[C@H](O)C1 [alvocidib]
Outline: as §1

[1] = compound: CNC(=O)C1=CC=CC=C1NC2=NC(=NC=C2Cl)NC3=C(C=C(C=C3)N4CCOCC4)OC
Outline: as §1

defactinib = compound: CNC(=O)c1ccc(Nc2ncc(C(F)(F)F)c(NCc3nccnc3N(C)S(C)(=O)=O)n2)cc1 [defactinib]
Outline: as §1

[2] = compound: CNc1nc(-c2ccc3c(N)n[nH]c3c2)cc(N2C[C@@H](C(=O)NC3CCCCC3)CC[C@H]2C)n1
Outline: as §1

[3] = compound: COC(=O)[C@H](CCSC)NC(=O)C1=C(C=C(C=C1)NC[C@H](CS)N)C2=CC=CC=C2
Outline: as §1

[4] = compound: COC1=CC=C(C=C1)CN2C=CC3=C2C=C(C=C3)C(=O)NO
Outline: as §1

zotarolimus = compound: CO[C@H]1C[C@@H]2CC[C@@H](C)[C@@](O)(O2)C(=O)C(=O)N2CCCC[C@H]2C(=O)O[C@H]([C@H](C)C[C@@H]2CC[C@H](n3cnnn3)[C@H](OC)C2)CC(=O)[C@H](C)/C=C(\C)[C@@H](O)[C@@H](OC)C(=O)[C@H](C)C[C@H](C)/C=C/C=C/C=C/1C [zotarolimus]
Outline: as §1

idasanutlin = compound: COc1cc(C(=O)O)ccc1NC(=O)[C@@H]1N[C@@H](CC(C)(C)C)[C@](C#N)(c2ccc(Cl)cc2F)[C@H]1c1cccc(Cl)c1F [idasanutlin]
Outline: as §1

sotrastaurin = compound: CN1CCN(c2nc(C3=C(c4c[nH]c5ccccc45)C(=O)NC3=O)c3ccccc3n2)CC1 [sotrastaurin]
Outline: as §1

filanesib = compound: CON(C)C(=O)N1N=C(c2cc(F)ccc2F)S[C@@]1(CCCN)c1ccccc1 [filanesib]
Outline: as §1

Tubastatin A = compound: CN1CCc2c(c3ccccc3n2Cc2ccc(C(=O)NO)cc2)C1 [Tubastatin A]
Outline: as §1

gefitinib = compound: COc1cc2ncnc(Nc3ccc(F)c(Cl)c3)c2cc1OCCCN1CCOCC1 [gefitinib]
Outline: as §1

rucaparib = compound: CNCc1ccc(-c2[nH]c3cc(F)cc4c3c2CCNC4=O)cc1 [rucaparib]
Outline: as §1

encorafenib = compound: COC(=O)N[C@@H](C)CNc1nccc(-c2cn(C(C)C)nc2-c2cc(Cl)cc(NS(C)(=O)=O)c2F)n1 [encorafenib]
Outline: as §1

alisertib = compound: COc1cc(Nc2ncc3c(n2)-c2ccc(Cl)cc2C(c2c(F)cccc2OC)=NC3)ccc1C(=O)O [alisertib]
Outline: as §1

[5] = compound: COc1cc2nc(-c3cc(F)ccc3O)nc(N[C@@H]3CNC[C@H]3C(C)(C)O)c2cc1OC
Outline: as §1

[6] = compound: COc1cccc2cc(-c3nc([C@H]4CC[C@H](C(=O)O)CC4)n4ncnc(N)c34)[nH]c12
Outline: as §1

lapatinib = compound: CS(=O)(=O)CCNCc1ccc(-c2ccc3ncnc(Nc4ccc(OCc5cccc(F)c5)c(Cl)c4)c3c2)o1 [lapatinib]
Outline: as §1

pictilisib = compound: CS(=O)(=O)N1CCN(Cc2cc3nc(-c4cccc5[nH]ncc45)nc(N4CCOCC4)c3s2)CC1 [pictilisib]
Outline: as §1

Measured: log2 fold change

HERPUD2 (UniProt Q9BSE4)
inactive: saracatinib 0.025 | alvocidib -0.155 | [1] 0.103 | defactinib -0.011 | [2] 0.006 | [3] -0.147 | [4] 0.02 | zotarolimus 0.126 | idasanutlin 0.006

HGD (UniProt Q93099)
inactive: sotrastaurin -0.046 | filanesib 0.226

GSTA1 (UniProt P08263)
inactive: sotrastaurin 0.016 | Tubastatin A -0.024 | defactinib 0.27 | [3] -0.269 | filanesib -0.159 | gefitinib 0.096

GXYLT1 (UniProt Q4G148)
inactive: saracatinib 0.512 | alvocidib -0.007 | Tubastatin A -0.011 | [1] -0.02 | defactinib -0.044 | rucaparib 0.008 | [2] -0.208 | encorafenib 0.252 | [3] 0.121 | [4] 0.547 | zotarolimus -0.023 | idasanutlin 0.039 | alisertib -0.086 | [5] 0.068 | gefitinib 0.022 | [6] 0.058 | lapatinib 0.111 | pictilisib -0.079

GSTM2 (UniProt P28161)
inactive: sotrastaurin -0.004 | alvocidib -0.002 | Tubastatin A 0.046 | [1] -0.003 | defactinib -0.002 | rucaparib -0.064 | encorafenib -0.021 | [3] 0.008 | [4] 0.025 | filanesib -0.048 | zotarolimus 0.015 | idasanutlin 0.034 | alisertib -0.1 | [5] -0.044 | gefitinib -0.001 | [6] 0.015 | lapatinib 0.135 | pictilisib 0.136

HES1 (UniProt Q14469)
inactive: saracatinib -0.265 | alvocidib 0.011 | Tubastatin A 0.255 | [1] 0.031 | [2] 0.28 | [4] 0.022 | zotarolimus -0.146 | idasanutlin 0.017 | alisertib 0.163 | [6] -0.106 | pictilisib -0.051

HEXD isoform 2 (UniProt Q8WVB3)
inactive: saracatinib 0.112 | sotrastaurin -0.059 | [1] 0.231 | defactinib -0.181 | [2] -0.134 | [3] 0.075 | filanesib -0.23 | [5] 0.047 | lapatinib -0.129 | pictilisib 0.017

HFM1 (UniProt A2PYH4)
inactive: saracatinib 0.059 | [2] -0.2 | [5] 0.089 | lapatinib 0.029

HAUS8 (UniProt Q9BT25)
inactive: alvocidib 0.177 | defactinib -0.256 | [3] -0.026 | zotarolimus 0.051 | idasanutlin 0.171 | alisertib -0.151 | [5] -0.18 | gefitinib -0.042 | [6] 0.11 | lapatinib 0.042 | pictilisib -0.184

HAUS2 (UniProt Q9NVX0)
inactive: saracatinib -0.033 | alvocidib -0.015 | [1] -0.147 | rucaparib 0.205 | [2] 0.069 | encorafenib 0.05 | zotarolimus 0.057 | idasanutlin -0.034 | alisertib -0.182 | [5] -0.259 | [6] -0.049 | lapatinib 0.307

GTF2H1 (UniProt P32780)
inactive: alvocidib -0.006 | [1] 0.055 | defactinib 0.176 | rucaparib 0.082 | encorafenib -0.083 | [3] -0.121 | [4] -0.008 | zotarolimus 0.082 | alisertib -0.089 | [6] 0.112 | pictilisib 0.147

HDAC10 (UniProt Q969S8)
inactive: saracatinib -0.04 | Tubastatin A 0.458 | [1] 0.108 | defactinib 0.067 | rucaparib 0.024 | [2] -0.02 | encorafenib 0.024 | [3] -0.137 | zotarolimus -0.022 | idasanutlin -0.157 | alisertib -0.264 | [5] 0.049 | gefitinib 0.168 | [6] 0.065 | lapatinib 0.044 | pictilisib 0.084

HBB (UniProt P68871)
inactive: rucaparib 0.631 | encorafenib -0.082 | idasanutlin -0.168 | alisertib -0.292 | [6] 0.336

GTPBP8 (UniProt Q8N3Z3)
inactive: Tubastatin A -0.003 | [1] 0.031 | defactinib -0.011 | rucaparib -0.058 | encorafenib -0.098 | [3] -0.208 | [4] 0.047 | [5] 0.248 | gefitinib -0.024 | lapatinib -0.256

HBZ, A0A494C057
inactive: [1] 0.005 | rucaparib -0.058 | encorafenib -0.094 | alisertib 1.67 | gefitinib 0.151 | [6] 0.009

HECTD4 (UniProt Q9Y4D8)
inactive: [1] -0.077 | defactinib -0.163 | [3] -0.225 | [4] -0.196 | alisertib 0.259 | [6] 0.087

4 successive records already listed:
HDAC10 (UniProt Q969S8)
inactive: saracatinib -0.04 | Tubastatin A 0.458 | [1] 0.108 | defactinib 0.067 | rucaparib 0.024 | [2] -0.02 | encorafenib 0.024 | [3] -0.137 | zotarolimus -0.022 | idasanutlin -0.157 | alisertib -0.264 | [5] 0.049 | gefitinib 0.168 | [6] 0.065 | lapatinib 0.044 | pictilisib 0.084

HBB (UniProt P68871)
inactive: rucaparib 0.631 | encorafenib -0.082 | idasanutlin -0.168 | alisertib -0.292 | [6] 0.336

GTPBP8 (UniProt Q8N3Z3)
inactive: Tubastatin A -0.003 | [1] 0.031 | defactinib -0.011 | rucaparib -0.058 | encorafenib -0.098 | [3] -0.208 | [4] 0.047 | [5] 0.248 | gefitinib -0.024 | lapatinib -0.256

HBZ, A0A494C057
inactive: [1] 0.005 | rucaparib -0.058 | encorafenib -0.094 | alisertib 1.67 | gefitinib 0.151 | [6] 0.009

Further records

HBD (UniProt E9PEW8)
inactive: [1] -0.159 | alisertib 1.75 | gefitinib -0.032 | [6] -0.086 | pictilisib -0.018

GSTCD (UniProt Q8NEC7)
inactive: sotrastaurin 0.012 | alvocidib -0.082 | Tubastatin A -0.035 | [1] -0.046 | defactinib -0.256 | rucaparib -0.004 | encorafenib 0.012 | [3] -0.023 | [4] -0.094 | filanesib -0.202 | zotarolimus 0.097 | idasanutlin -0.018 | alisertib -0.151 | [5] 0.044 | gefitinib 0.098 | [6] -0.036 | lapatinib 0.001
